Source: patent US6664088B2, “Production of vanillin” (Plant Bioscience Limited, priority 1996, dated 2003)
At least one structure is not confirmed: it was looked up by name or label, or the drawing left a doubt.

System: trans-ferulate: CoASH ligase
Assay: trans-ferulate:CoASH ligase assay, initial increase in absorbance at 345 nm
Assay type: biochemical, Pseudomonas fluorescens
Settings: crude extracts of Ps. fluorescens AN103; initial rate at absorbance maximum of the SCoA thioester
Method: Cell-free extracts were routinely incubated at 30° C. and pH 7.5 in a reaction mixture (1 ml) containing 90 mM Tris HCl buffer and 2.5 mM MgCl2, together with (as appropriate) 0.5 mM trans-ferulic acid, 0.2 mM CoASH (Li salt) and 2.5 mM ATP. This complete reaction mixture constituted an assay for trans-ferulate: CoASH ligase, where the initial increase in absorbance at 345 nm was monitored against a blank reaction mixture from which CoASH was omitted. Incubations with HMPHP SCoA (generally 0.4 mM) were performed similarly, but with the omission of trans-ferulic acid, CoASH and ATP.

COc1cc(/C=C/C(=O)O)ccc1O [Ferulic acid, 4-hydroxy-3-methoxy-trans-cinnamate]
Activity, formation of CoASH thioester: 0.50 nkat/mg protein
